From patent US20120270770A1, “Anti-angiogenic peptides and their uses” (priority 2010, published 2012)
Entries after “also recorded” stand apart in the source; their conditions may differ. Not every detail of the peptide structures is certain; ends, links or a residue may be inferred. Where a SMILES comes first, the peptide text is derived from it.

Legend:
[1] = test system: angiogenesis in Matrigel deposits imbibed with fibroblast growth factor 1 (FGF1); test: Matrigel deposit angiogenesis assay (FGF1-loaded Matrigel implanted in mice, histology score); assay type: in vivo
Text: Matrigel deposits were surgically implanted on both sides of 4 mice per treatment yielding a possible 8 samples per treatment. Matrigel is a polymeric substance that appears to be relatively inert in animals and it can serve as a matrix that allows experimentation in vivo on many different difficult-to-study-processes. Prior to implantation, the Matrigel was allowed to imbibe fibroblast growth factor 1 (FGF1). This protein is a powerful inducer of angiogenesis and its presence guarantees that sufficient activity will be observed within the allotted time period of the experiment. Therefore, any inhibition of angiogenesis is likely to be a real phenomenon as the experiment has been set to heavily favor the angiogenic process. Angiogenesis occurs by day 14 and beginning Day 1 (Day 0=day of implantation), mice were injected IP daily with 20 μg of peptide in 100 μl of normal saline. The animals were sacrificed on Day 14, and each Matrigel deposit divided longitudinally and fixed in 10% buffered formalin. One of the halves of each Matrigel deposit was then sectioned. Read-out for this experiment was via histology, with semi-quantitative/qualitative counting of migration of cells and their subsequent assembly of lumenal structures within the Matrigel. This method allows us to observe the full physiologic spectrum of effects, and was useful in delineating trends. […] In FIG. 13, A represents what a section of a Matrigel gel deposit looks like under the microscope soon after surgical implantation. The sample in B is derived from the control at the conclusion of the experiment. Intense activity is present with numerous cells attaching to the surface of the Matrigel. Cells begin to penetrate the deposit and organize into discrete structures that coalesce to form the beginning of tubes twisting and branching in many directions. These venules eventually connect with the system carrying blood and it is possible to see red cells and lymphocytes within them. This process is called “arborization”, derived from the fact that the angiogenic process most closely resembles the growth of roots and branches of trees. All but two of the peptide treatments looked, more or less, like B (all the peptides of Table 1 were tested). In C, a typical sample from the peptide C-1 treatment is shown. […] Consequently, there were far fewer cells and cellular structures inside of the Matrigel. […] There were large regions of Matrigel that had no visibly associated structures and few single cells, including on the periphery, while other regions had some limited activity.
This system ranks each sample using a 0 to 4 plus (+) scale. Thus, B in FIG. 13 would yield a score of +++ while no + sign would yield a value of 0, as in A in FIG. 13. In Table 3 the data is modified to a numerical form and plotted averages are shown.

tumors = test: In vivo anti-tumor activity in animal tumor models
[2] = 0 to 4 plus scale, 20 μg peptide IP daily, Day 14 histology

Q: How did the “angiogenic activity score, Sample 1” value [1, 2] turn out when `C[C@H](NC(=O)[C@H](Cc1ccccc1)NC(=O)[C@H](C)NC(=O)[C@H](Cc1ccccc1)NC(=O)[C@H](CCCCN)NC(=O)[C@H](C)NC(=O)[C@H](Cc1ccccc1)NC(=O)[C@H](CCCCN)NC(=O)[C@H](CCCCN)NC(=O)[C@H](C)NC(=O)[C@H](Cc1ccccc1)NC(=O)[C@H](CCCCN)NC(=O)[C@H](CCCCN)NC(=O)[C@H](Cc1ccccc1)NC(=O)[C@H](CCCCN)NC(=O)[C@H](CCCCN)NC(=O)[C@H](C)NC(=O)[C@H](Cc1ccccc1)NC(=O)[C@H](CCCCN)NC(=O)[C@H](CCCCN)NC(=O)[C@H](C)NC(=O)[C@@H](N)Cc1ccccc1)C(=O)N[C@@H](Cc1ccccc1)C(=O)O` [JC15] (H-FAKKFAKKFKKFAKKFAKFAFAF-OH; N-terminus and C-terminus assumed) was run?
A: 3

Q: What about the “angiogenic activity score, Sample 2” value [1, 2] of the same compound?
A: 2

Q: What about the “angiogenic activity score, Sample 3” value [1, 2] of the same compound?
A: 3

Q: And the “angiogenic activity score, Sample 4” value [1, 2]?
A: 2

Q: And the “angiogenic activity score, Sample 5” value [1, 2]?
A: 3

Q: What about the “% Diff.” value ([1]; difference of mean score from control (2.50)) of the same compound?
A: 4.00%

Q: What about the “angiogenic / anti-angiogenic activity in Matrigel deposit (in words)” value ([1]; histology, 20 μg peptide IP daily, Day 14) of the same compound?
A: closer to the control; also recorded: cannot exert an anti-angiogenic effect

Q: And the “angiogenic activity score, Mean” value ([1]; mean of samples, control mean 2.50)?
A: 2.60

Q: And the “tumors after injection directly into the tumor” value (tumors; a few injections over a period of several days)?
A: permanently eliminated

Q: And the “tumors after injection in a site removed from the tumor (systemic activity)” value (tumors; several animal tumor models, in some cases little activity)?
A: most of the tumors also disappeared
